Data on 36 molecules can be found in the supplement of paper PMC4604168 (melanoma cell lines).

Molecules are shown by their SMILES. This is one part of the list. Repeats are few or missing, and single values can be far off.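 The apoptosis fraction was the count of cleaved-PARP antibody-stained nuclei relative to all DNA-stained nuclei, imaged in 1,536-well plates. Screening doses were set so most cells survived, and baseline and induced cleaved-PARP levels vary greatly across cell lines.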

This test has as its system G361. Nature of the test: cleaved PARP positive nuclei fraction relative to DMSO control; melanoma cells; higher = more apoptosis. As to conditions: library dose: low library concentration; 72 h.
In the case of `CN(NC(=O)CC(=O)NN(C)C(=S)c1ccccc1)C(=S)c1ccccc1` + CCCCCCCCCCCC1=C(O)C(=O)C=C(O)C1=O [Embelin] (first compound 0.006 µM, partner dose 1.2 µM), the “cleaved PARP positive nuclei fraction” value was determined as 56.2%.

Regarding `COc1ccc2c(c1)CCC1C2CCC2(C)C(NCCCCCCN3C(=O)C=CC3=O)CCC12` (stereo unspecified) + O=c1cc(-c2cccc3c2Sc2ccccc2S3)oc(N2CCOCC2)c1 [KU55933] (first compound 0.4 µM, partner dose 1 µM), the “cleaved PARP positive nuclei fraction” value is 106%. Under `COc1ccc2c(c1)CCC1C2CCC2(C)C(NCCCCCCN3C(=O)C=CC3=O)CCC12` (stereo unspecified) + Oc1nc(-c2ccc(C(F)(F)F)cc2)nc2c1CSCC2 [XAV939] (first compound 0.4 µM, partner dose 2 µM) stands 91.8%; under `O=C(O)c1ccc(-c2c[nH]c3ncc(-c4ccccc4)cc23)cc1C1CCCC1` + COc1ccc2c(c1)CCC1C2CCC2(C)C(NCCCCCCN3C(=O)C=CC3=O)CCC12 [U73122] (first compound 0.16 µM, partner dose 0.4 µM), 42.8%. Under `CCc1ccc(CCOc2ccc(CC3SC(=O)NC3=O)cc2)nc1` (stereo unspecified) [pioglitazone] + Oc1nc(-c2ccc(C(F)(F)F)cc2)nc2c1CSCC2 [XAV939] (first compound 2 µM, partner dose 2 µM) stands 182%. Under `COc1cc2c(Oc3ccc4[nH]c(C)cc4c3F)ncnc2cc1OCCCN1CCCC1` [cediranib] + COc1cc2ncnc(Nc3ccc(Oc4ccccc4)cc3)c2cc1OC [SrcI1] (first compound 0.4 µM, partner dose 2 µM) stands 101%; under `N#Cc1c(O)c2c(-c3ccc(-c4ccccc4O)cc3)csc2[nH]c1=O` + COc1cc2ncnc(Nc3ccc(Oc4ccccc4)cc3)c2cc1OC [SrcI1] (first compound 2 µM, partner dose 2 µM), 201%. As to `CN(NC(=O)CC(=O)NN(C)C(=S)c1ccccc1)C(=S)c1ccccc1` + CC(C)CCN1c2nc(Nc3cc(F)c(O)c(F)c3)ncc2N(C)C(=O)C1C [BID1870] (first compound 0.006 µM, partner dose 0.2 µM), the “cleaved PARP positive nuclei fraction” value came out at 362%.

Turning to `CCc1ccc(CCOc2ccc(CC3SC(=O)NC3=O)cc2)nc1` (stereo unspecified) [pioglitazone] + N#Cc1c(O)c2c(-c3ccc(-c4ccccc4O)cc3)csc2[nH]c1=O [A769662] (first compound 2 µM, partner dose 2 µM), the “cleaved PARP positive nuclei fraction” value was found to be 29.7%.

On to `Oc1nc(-c2ccc(C(F)(F)F)cc2)nc2c1CSCC2` + CCCCCCCCCCCC1=C(O)C(=O)C=C(O)C1=O [Embelin] (first compound 2 µM, partner dose 1.2 µM), for which the “cleaved PARP positive nuclei fraction” value was 134%. As for `CCN(CC)CCCCNc1ncc2cc(-c3cc(OC)cc(OC)c3)c(NC(=O)NC(C)(C)C)nc2n1` + Cn1cc(/C=C2\C(=O)Nc3cccnc32)c2ccccc21 [GW441756] (first compound 0.1 µM, partner dose 0.4 µM), the “cleaved PARP positive nuclei fraction” value came to 94.2%. The value for `CCc1ccc(CCOc2ccc(CC3SC(=O)NC3=O)cc2)nc1` (stereo unspecified) [pioglitazone] + Cn1cc(/C=C2\C(=O)Nc3cccnc32)c2ccccc21 [GW441756] (first compound 2 µM, partner dose 0.4 µM) was 195%. Under `COc1ccc(COc2ccc(Cc3cnc(N)nc3N)cc2OC)cc1` + COc1cc2ncnc(Nc3ccc(Oc4ccccc4)cc3)c2cc1OC [SrcI1] (first compound 1 µM, partner dose 2 µM) stands 90.7%; under `O=S(=O)(c1ccccc1)N(CC(F)(F)F)c1ccc(C(O)(C(F)(F)F)C(F)(F)F)cc1` + COc1cc2ncnc(Nc3ccc(Oc4ccccc4)cc3)c2cc1OC [SrcI1] (first compound 1.4 µM, partner dose 2 µM), 107%. The value for `COc1ccc2c(c1)CCC1C2CCC2(C)C(NCCCCCCN3C(=O)C=CC3=O)CCC12` (stereo unspecified) + Cn1cc(/C=C2\C(=O)Nc3cccnc32)c2ccccc21 [GW441756] (first compound 0.4 µM, partner dose 0.4 µM) was 86.3%. With `CN(NC(=O)CC(=O)NN(C)C(=S)c1ccccc1)C(=S)c1ccccc1` + Cc1cc([N+](=O)[O-])ccc1NS(=O)(=O)c1cc(Cl)ccc1Cl [FH535] (first compound 0.006 µM, partner dose 1 µM), the “cleaved PARP positive nuclei fraction” value stood at 214%.

With `N#Cc1c(O)c2c(-c3ccc(-c4ccccc4O)cc3)csc2[nH]c1=O` + c1cc(-c2cnn3cc(-c4ccc(OCCN5CCCCC5)cc4)cnc23)ccn1 [Dorsomorphin] (first compound 2 µM, partner dose 0.4 µM), the “cleaved PARP positive nuclei fraction” value stood at 120%. For the molecule `CCc1ccc(CCOc2ccc(CC3SC(=O)NC3=O)cc2)nc1` (stereo unspecified) [pioglitazone] + COc1ccc(COc2ccc(Cc3cnc(N)nc3N)cc2OC)cc1 [GW2580] (first compound 2 µM, partner dose 1 µM), the “cleaved PARP positive nuclei fraction” value stood at 133%. For the molecule `COc1cc2c(Oc3ccc4[nH]c(C)cc4c3F)ncnc2cc1OCCCN1CCCC1` [cediranib] + CCc1ccc(CCOc2ccc(CC3SC(=O)NC3=O)cc2)nc1 [pioglitazone] (first compound 0.4 µM, partner dose 2 µM), the “cleaved PARP positive nuclei fraction” value turned out to be 93.2%. For the molecule `COc1ccc(-c2ccc3c(N4CCOCC4)nc(N4C[C@@H](C)O[C@@H](C)C4)nc3n2)cc1CO` + COc1cc2ncnc(Nc3ccc(Oc4ccccc4)cc3)c2cc1OC [SrcI1] (first compound 0.02 µM, partner dose 2 µM), the “cleaved PARP positive nuclei fraction” value came to 90.6%.

Consider `O=C(O)c1ccc(-c2c[nH]c3ncc(-c4ccccc4)cc23)cc1C1CCCC1` + O=S(=O)(c1ccccc1)N(CC(F)(F)F)c1ccc(C(O)(C(F)(F)F)C(F)(F)F)cc1 [T0901317] (first compound 0.16 µM, partner dose 1.4 µM), for which the “cleaved PARP positive nuclei fraction” value was determined as 148%. For the molecule `COc1ccc(-c2ccc3c(N4CCOCC4)nc(N4C[C@@H](C)O[C@@H](C)C4)nc3n2)cc1CO` + CCN(CC)CCCCNc1ncc2cc(-c3cc(OC)cc(OC)c3)c(NC(=O)NC(C)(C)C)nc2n1 [PD173074] (first compound 0.02 µM, partner dose 0.1 µM), the “cleaved PARP positive nuclei fraction” value is 99%. Under `Oc1cc(-c2nc(-c3ccccc3)[nH]c2-c2ccncc2)ccc1Cl` + O=C1NC(=O)/C(=C/c2ccc(-c3ccc(F)cc3O)o2)S1 [AS252424] (first compound 0.2 µM, partner dose 1 µM) stands 133%; under `CCc1ccc(CCOc2ccc(CC3SC(=O)NC3=O)cc2)nc1` (stereo unspecified) [pioglitazone] + O=C(Nc1ccccc1)c1cc([N+](=O)[O-])ccc1Cl [GW9662] (first compound 2 µM, partner dose 2 µM), 93.1%; under `COc1ccc2c(c1)CCC1C2CCC2(C)C(NCCCCCCN3C(=O)C=CC3=O)CCC12` (stereo unspecified) + O=C(O)C(=O)Nc1sc2c(c1C(=O)O)CCNC2 [TCS401] (first compound 0.4 µM, partner dose 1.66667 µM), 104%. In the case of `CN(C)S(=O)(=O)c1ccc2c(c1)/C(=C/c1cc3c([nH]1)CCCC3)C(=O)N2` + COc1cc(N2CCC(N3CCN(C)CC3)CC2)ccc1Nc1ncc(Cl)c(Nc2ccccc2S(=O)(=O)C(C)C)n1 [NVP-TAE684] (first compound 0.4 µM, partner dose 0.08 µM), the “cleaved PARP positive nuclei fraction” value stood at 150%. Under `CN(C)S(=O)(=O)c1ccc2c(c1)/C(=C/c1cc3c([nH]1)CCCC3)C(=O)N2` + N#Cc1c(O)c2c(-c3ccc(-c4ccccc4O)cc3)csc2[nH]c1=O [A769662] (first compound 0.4 µM, partner dose 2 µM) stands 60.8%.

As to `COc1ccc2c(c1)CCC1C2CCC2(C)C(NCCCCCCN3C(=O)C=CC3=O)CCC12` (stereo unspecified) + CC(C)CCN1c2nc(Nc3cc(F)c(O)c(F)c3)ncc2N(C)C(=O)C1C [BID1870] (first compound 0.4 µM, partner dose 0.2 µM), the “cleaved PARP positive nuclei fraction” value is 160%. Under `CCc1ccc(CCOc2ccc(CC3SC(=O)NC3=O)cc2)nc1` (stereo unspecified) [pioglitazone] + Oc1cc(-c2nc(-c3ccccc3)[nH]c2-c2ccncc2)ccc1Cl [L779450] (first compound 2 µM, partner dose 0.2 µM) stands 129%; under `CCc1ccc(CCOc2ccc(CC3SC(=O)NC3=O)cc2)nc1` (stereo unspecified) [pioglitazone] + CC(C)CCN1c2nc(Nc3cc(F)c(O)c(F)c3)ncc2N(C)C(=O)C1C [BID1870] (first compound 2 µM, partner dose 0.2 µM), 77.8%; under `CN(NC(=O)CC(=O)NN(C)C(=S)c1ccccc1)C(=S)c1ccccc1` + O=c1cc(-c2cccc3c2Sc2ccccc2S3)oc(N2CCOCC2)c1 [KU55933] (first compound 0.006 µM, partner dose 1 µM), 182%. Regarding `O=C(O)c1ccc(-c2c[nH]c3ncc(-c4ccccc4)cc23)cc1C1CCCC1` + Oc1nc(-c2ccc(C(F)(F)F)cc2)nc2c1CSCC2 [XAV939] (first compound 0.16 µM, partner dose 2 µM), the “cleaved PARP positive nuclei fraction” value was determined as 66.4%. On to `COc1ccc(COc2ccc(Cc3cnc(N)nc3N)cc2OC)cc1` + COc1cc(N2CCC(N3CCN(C)CC3)CC2)ccc1Nc1ncc(Cl)c(Nc2ccccc2S(=O)(=O)C(C)C)n1 [NVP-TAE684] (first compound 1 µM, partner dose 0.08 µM), for which the “cleaved PARP positive nuclei fraction” value came out at 153%. The value for `COc1ccc2c(c1)CCC1C2CCC2(C)C(NCCCCCCN3C(=O)C=CC3=O)CCC12` (stereo unspecified) + c1cc(-c2cnn3cc(-c4ccc(OCCN5CCCCC5)cc4)cnc23)ccn1 [Dorsomorphin] (first compound 0.4 µM, partner dose 0.4 µM) was 124%. Under `NCC(=O)Nc1ccc(-n2nc(C(F)(F)F)cc2-c2ccc3c(ccc4ccccc43)c2)cc1` + COc1ccc(COc2ccc(Cc3cnc(N)nc3N)cc2OC)cc1 [GW2580] (first compound 1 µM, partner dose 1 µM) stands 99.4%; under `COc1cc2ncnc(Nc3ccc(Oc4ccccc4)cc3)c2cc1OC` + COc1cc(N2CCC(N3CCN(C)CC3)CC2)ccc1Nc1ncc(Cl)c(Nc2ccccc2S(=O)(=O)C(C)C)n1 [NVP-TAE684] (first compound 2 µM, partner dose 0.08 µM), 44.1%.
